From US20150150843A1, “CARDIOPROTECTIVE COMPOUNDS, THEIR USE WITH CHEMOTHERAPY, AND METHODS FOR IDENTIFYING THEM” (priority 2012, published 2015)
At least one compound was matched to its structure with a doubt left. Some results were stated once for a whole list of compounds, not compound by compound.

Experiments:
cardiomyoyte HL1 = assay: AnnexinV apoptosis assay in cardiomyocyte HL1; format: cell-based, mouse
Experimental: (§1) Cardiomyocyte line HL-1 was derived from mouse atrium tumor. Culturing conditions were previously published (Claycomb et al., Proc. Natl. Acad. Sci. USA, 95, 2979, 1998). HL 1 was cultured with Claycomb medium (Sigma) supplemented with fetal bovine serum (FBS), penicillin/streptomycin, L-glutamine and norepinephrine. DU145 and LNCaP are human prostate tumor lines, while MCF7 is a human breast cancer line. DU145 and MCF7 were cultured with high glucose DMEM (Life Sciences) supplemented with penicillin/streptomycin and L-glutamine, and LNCaP was grown in RPMI-1640 (Life Sciences) plus penicillin/streptomycin and L-glutamine. […] Apoptosis indices were quantified as percentage of AnnexinV positive cells. All experiments were done at least three times, and the statistics were obtained by Student T-test.

[1] = tested on: prostate tumor cell DU145; assay: CellTiter Glo viability of doxorubicin-treated DU145; format: cell-based, human; details: VIS and DPU at 20 μM
Experimental: (§2) Cardiomyocyte line HL-1 was derived from mouse atrium tumor. Culturing conditions were previously published (Claycomb et al., Proc. Natl. Acad. Sci. USA, 95, 2979, 1998). HL 1 was cultured with Claycomb medium (Sigma) supplemented with fetal bovine serum (FBS), penicillin/streptomycin, L-glutamine and norepinephrine. DU145 and LNCaP are human prostate tumor lines, while MCF7 is a human breast cancer line. DU145 and MCF7 were cultured with high glucose DMEM (Life Sciences) supplemented with penicillin/streptomycin and L-glutamine, and LNCaP was grown in RPMI-1640 (Life Sciences) plus penicillin/streptomycin and L-glutamine. […] All experiments were done at least three times, and the statistics were obtained by Student T-test.

tumor line DU145 = assay: Doxorubicin-induced apoptosis in tumor line DU145; format: cell-based, human
Experimental: as §1

[2] = tested on: JNK responsive reporter AP-1 in HL 1 cells; assay: AP-1 luciferase reporter assay in HL 1 cells; format: cell-based, mouse; details: doxorubicin-treated
Excerpt: (§3) In an effort to identify pathways involved in VIS and DPU mediated cardioprotection, we screened a panel of kinases by western blotting. […] To confirm the cardiomyocyte-specific inhibition of JNK signaling, we used a luciferase-based AP1 reporter assay to detect JNK activation in HL 1 and DU145 cells.

zebrafish cardiomyocytes = assay: TUNEL staining of apoptotic cardiomyocytes in doxorubicin-treated zebrafish; format: in vivo; details: 100 μM doxorubicin plus 20 μM rescue compound, two days
Experimental: Because cardiomyocyte apoptosis plays a critical role in mediating doxorubicin-induced cardiomyopathy, we sought to determine if VIS Aand DPU attenuate heart failure by inhibiting cardiomyocyte apoptosis.
Hearts were surgically removed and fixed with 4% paraformaldehyde (PFA) for 20 minutes at room temperature. After staining with an in situ TUNEL kit (Roche), heart samples were embedded in mounting medium and flattened with slide and coverslip, and then subjected to confocal microscopy. The data were quantified as percentage of TUNEL positive cardiomyocytes. All experiments were done at least three times, and the statistics were obtained by Student T-test.

cardiomyocyte HL1 = assay: CellTiter Glo viability of doxorubicin-treated HL1; format: cell-based, mouse; details: VIS and DPU at 20 μM
Experimental: as §2

tumor line LNCaP = assay: Doxorubicin-induced apoptosis in tumor line LNCaP; format: cell-based, human
Experimental: as §1

[3] = tested on: caspases 3, 8 and 9 in cardiomyocyte; assay: Caspase 3, 8 and 9 activity (fluorogenic substrates) in cardiomyocyte; format: cell-based
Experimental: We also examined effects of the compounds on apoptosis (via TUNEL staining) in cardiomyocytes and tumor cells.
Specific activity of caspases 3, 8 and 9 were assessed semi-quantitatively using the corresponding fluorogenic substrates following manufacturer's protocols (R&D Systems). All experiments were done at least three times, and the statistics were obtained by Student T-test.

[4] = tested on: JNK phosphorylation in DU145 cells; assay: JNK phosphorylation western blot in DU145 cells; format: cell-based, human
Excerpt: as §3

[5] = tested on: JNK responsive reporter AP-1 in DU145 cells; assay: AP-1 luciferase reporter assay in DU145 cells; format: cell-based, human; details: doxorubicin-treated
Excerpt: as §3

tumor line MCF7 = assay: Doxorubicin-induced apoptosis in tumor line MCF7; format: cell-based, human
Experimental: as §1

mouse cardiac sections = assay: TUNEL apoptosis assay in hearts of doxorubicin-treated mice; format: in vivo; details: 15 mg/kg doxorubicin plus 25 mg/kg visnagin or 10 mg/kg diphenylurea IP, one day
Experimental: To determine if the ability of VIS and DPU to protect cardiomyocytes from apoptosis was conserved in mammals, we treated mice with doxorubicin with or without co-treatment with VIS or DPU. One day later, hearts were collected for apoptosis assays using TUNEL (Supplement FIG. 1b). […] Therefore, VIS and DPU appear to prevent doxorubicin-induced cardiac apoptosis in both zebrafish and mice.
One day after injection, hearts were collected and fixed with 4% PFA at 4° C. overnight and then were subjected to paraffin embedding and sectioning. The heart sections were stained using the TMR TUNEL kit (Roche) following the manufacturer's protocol. The stained sections were scanned with MetaMorph-assisted slide scanning microscopy, and apoptosis indices were quantified as TUNEL positive cell/mm^2. All experiments were done at least three times, and the statistics were obtained by Student T-test.

[6] = tested on: JNK phosphorylation in HL 1 cells; assay: JNK phosphorylation western blot in HL 1 cells; format: cell-based, mouse
Excerpt: as §3
Blots were quantified by densitometry with Image J. All experiments were done at least three times, and the statistics were obtained by Student T-test.

zebrafish heart = assay: Doxorubicin-induced heart failure model in zebrafish (heart contraction, tail circulation, morphology, fractional shortening); format: in vivo; details: zebrafish treated with doxorubicin
Experimental: For screening, about 400 nl of small molecule stock solution was transferred from 96-well format library plates to fish plate with transfer pins. At dpf 3, treated fish were screened under inverted fluorescent microscope (100×) for heart contraction and tail circulation.
Zebrafish have been used successfully for high-throughput screening (HTS) to identify chemical compounds that suppress genetic defects and other disease states (Peterson et al., Methods Cell. Biol. 105, 525-541, 2011). Compared to cell-based in vitro systems, in vivo screening offers several advantages, including the ability to discover compounds with therapeutic activity even without knowing their molecular targets. In addition, compounds discovered by in vivo screening are selected for their ability to be effective in the complex context of the disease of interest. […] Heart contraction was dramatically compromised, resulting in the absence of blood cell circulation within tail blood vessels. Using a high-speed camera and a custom analysis algorithm, we were able to calculate the fractional shortening of the zebrafish hearts. […] Therefore, the zebrafish model appears to recapitulate several key aspects of the doxorubicin-induced heart failure seen in humans, including increased apoptosis and reduced contractility. Because the doxorubicin-induced changes in cardiac function and blood circulation are easily detected visually, they formed the basis of an assay to identify small molecules suppressing doxorubicin-induced cardiotoxicity.
Hearts were surgically removed and briefly fixed with 4% paraformaldehyde (PFA) for 20 minutes at room temperature. The fixed heart samples were embedded in mounting medium and flattened with slide and coverslip. Confocal images were captured from the flattened hearts, and red nuclei were counted. All experiments were done at least three times, and the statistics were obtained by Student T-test.
In order to confirm and quantify the activity of compounds with cardioprotective properties identified in the preceding assays, a high-resolution assay of cardiac function, described by Shin et al. (Physiol Genomics. 2010 July; 42(2): 300-309), can be used to measure heart fractional shortening.

[7] = tested on: neonatal rat cardiomyoyte; assay: Doxorubicin-induced apoptosis in neonatal rat cardiomyocyte; format: cell-based

Row | SMILES | doxorubicin-induced apoptosis, AnnexinV staining (cardiomyoyte HL1) | viability of doxorubicin-treated prostate tumor cell DU145 [1] | doxorubicin-induced apoptosis (tumor line DU145) | AP-1 luciferase activity [2] | number of apoptotic cardiomyocytes induced by doxorubicin (TUNEL) (zebrafish cardiomyocytes) | viability of doxorubicin-treated cardiomyocyte HL1 (cardiomyocyte HL1) | doxorubicin-induced apoptosis (tumor line LNCaP) | activity of caspases 3, 8 and 9 activated by doxorubicin [3] | doxorubicin-induced JNK phosphorylation [4] | AP-1 luciferase activity [5] | doxorubicin-induced apoptosis (tumor line MCF7) | doxorubicin-induced apoptosis in mouse heart (TUNEL) (mouse cardiac sections) | doxorubicin-induced JNK phosphorylation [6] | cardiac contractility as measured by fractional shortening (zebrafish heart) | concentrations at which protective (rescue of heart contraction and blood flow) (zebrafish heart) | overt morphological effects of doxorubicin on the heart (ventricular compaction, pericardial edema) (zebrafish heart) | doxorubicin-induced apoptosis, AnnexinV staining [7] | doxorubicin-induced apoptosis, TUNEL staining [7]
1 | O=C(Nc1ccccc1)Nc1ccccc1 [DPU, diphenylurea] | reduce doxorubicin-induced apoptosis | do not increase viability | do not reduce doxorubicin-induced apoptosis | repressed | greatly reduced the number of apoptotic cardiomyocytes | increase viability | do not reduce doxorubicin-induced apoptosis | inhibited | do not inhibit doxorubicin-induced JNK phosphorylation | not repressed | do not reduce doxorubicin-induced apoptosis | significantly decreased doxorubicin-induced apoptosis | inhibit doxorubicin-induced JNK phosphorylation | completely rescued cardiac contractility | below 1 μM | prevented the overt morphological effects of doxorubicin on the heart | inhibit doxorubicin-induced apoptosis | inhibit doxorubicin-induced apoptosis
2 | Oc1c2ccccc2c2c3c(cccc13)N=N2 [SP600125, reference compound] | – | increases DU 145 cell viability | – | represses AP-1 luciferase activity | – | increases HL 1 cell viability | – | – | – | represses AP-1 luciferase activity | – | – | – | completely reversed the cardiac contractility deficits | – | – | – | –
3 | COc1c2ccoc2cc2oc(C)cc(=O)c12 [VIS, visnagin] | – | – | – | – | – | – | – | – | – | – | – | – | – | – | below 1 μM | – | – | –
